Laboratory results: article PMC10653861, “Three small partner proteins facilitate the type VII-dependent secretion of an antibacterial nuclease” (mBio, 2023)
These are yes or no findings as the source states them, for the method shown. Binding seen in cells or lysates may run through a third protein. Some entries that bind do so weakly or less than the wild type.

Amino acid sequences for entries named in this document (tags omitted). Residues count along the entry.
UniProt Q2G179, residues 1-477: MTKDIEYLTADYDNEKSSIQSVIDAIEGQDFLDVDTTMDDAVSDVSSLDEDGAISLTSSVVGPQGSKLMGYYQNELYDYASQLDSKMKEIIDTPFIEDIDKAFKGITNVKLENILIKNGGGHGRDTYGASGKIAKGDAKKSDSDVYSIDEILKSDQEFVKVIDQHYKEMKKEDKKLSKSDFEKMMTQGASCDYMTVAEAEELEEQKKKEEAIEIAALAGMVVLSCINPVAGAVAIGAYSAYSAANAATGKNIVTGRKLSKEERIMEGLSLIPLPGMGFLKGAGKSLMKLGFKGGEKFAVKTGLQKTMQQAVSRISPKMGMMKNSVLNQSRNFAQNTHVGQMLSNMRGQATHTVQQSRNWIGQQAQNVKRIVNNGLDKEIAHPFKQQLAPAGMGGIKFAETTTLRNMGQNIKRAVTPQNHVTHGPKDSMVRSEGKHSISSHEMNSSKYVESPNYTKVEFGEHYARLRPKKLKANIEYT

B1: EsxB (protein, UniProt Q2G182 1-104)
chain: MGGYKGIKADGGKVDQAKQLAAKTAKDIEACQKQTQQLAEYIEGSDWEGQFANKVKDVLLIMAKFQEELVQPMADHQKAIDNLSQNLAKYDTLSIKQGLDRVNP
B2: EsaE (protein, UniProt Q2G181 1-224)
chain: MKDVKRIDYFSYEELTILGGSKLPLVNFELFDPSNFEEAKAALIEKELVTENDKLTDAGFKVATLVREYISAIVNIRINDMYFAPFSYEKDEYILLSRFKNNGFQIRIINKDIAWWSIVQSYPLLMRQEKSNDWDFKQIDDETLENLNNESIDTIGRVLEIEIYNHQGDPQQSLYNIYEQNDLLFIRYPLKDKVLNVHIGVINTFIRELFGFDTDENHINKAEE

Molecular target: EsaD_(1-477)-his (Staphylococcus aureus) (UniProt Q2G179)
Assay: pull-down + SEC

Binder | binding
B1 | binds
B2 | binds
